PubChem BioAssay AID485314 (National Center for Advancing Translational Sciences (NCATS), 2010)
Among all 340,000 compounds or so, about 4,500 (1.3%) were called active. The inconclusive results got no clear call from the source; some entries with a clear call stand among them for comparison. Calls follow the shape of the dose curve; as a rule, active = well fitted inhibition curve with a large enough effect; inconclusive = small, poorly fitted or top-dose-only effect, or another doubt; inactive = no such curve, though single readings can be large or run the other way. Potencies of inconclusive entries are doubtful fits and often do not repeat.

target: DNA polymerase beta (Homo sapiens) (UniProt P06746); test: qHTS Assay for Inhibitors of DNA Polymerase Beta; details: Pol beta primer extension/strand displacement, fluorescence kinetic; activity change, negative = inhibition: at 114 µM (top of the series)
Summary of the method: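 Pol beta (10 nM) and compounds were preincubated 15 min at room temperature, then 50 nM substrate (final) started primer extension/strand displacement. Reads were taken at 0 and 10 min; concentration-response data were fitted to a four-parameter Hill equation.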
% is scaled to controls: 0 for no effect and ±100 for the full control effect; potency is read from the fitted curve at half-maximal effect.

Q: How did the “activity change, negative = inhibition” value turn out when `COc1cccc(CNC(=O)c2ccc3c(c2)N(Cc2ccc(F)cc2Cl)C(=O)c2ccccc2S3)c1` was run?
A: The value was inactive: 1.6%.

Q: `Cc1cccc(NC(=O)NNC(=O)COc2ccc3ccccc3c2)c1` was tested. Which “activity change, negative = inhibition” value did it give?
A: The value was inactive: 8.02%.

Q: With `CCCc1nn2c(=O)cc(COC(=O)C3CCCCC3)nc2s1` as the molecule, how does the Potency read?
A: The Potency was inconclusive: 89.1 µM [inhibitor, single point].

Q: With `Oc1ccc(/C=N/NC(=S)Nc2cccnc2)c(O)c1O` as the molecule, how does the activity change, negative = inhibition read?
A: The activity change, negative = inhibition was inconclusive: -96.9% [inhibitor].

Q: With `CCN(CC(=O)NCc1cccs1)C(=O)c1cc(S(=O)(=O)N2CCOCC2)ccc1C` as the molecule, how does the Potency read?
A: The Potency was inconclusive: 14.1 µM [inhibitor, partial curve, poor fit].

Q: For `O=C(CSc1nnc(SCc2ccccc2)s1)N/N=C/c1ccc(C(=O)O)cc1`, which “activity change, negative = inhibition” value is on record?
A: Its value is inactive: -0.0478%.

Q: How did the Potency turn out when `O=Cc1cccn1-c1cccc([N+](=O)[O-])c1` was run?
A: Its Potency is inconclusive: 5.62 µM [inhibitor, partial curve].

Q: For `Cc1ccc2c(c1)c(=O)c1ccccc1n2CCCC(=O)Nc1ccc(Cl)cc1C`, which activity change, negative = inhibition is on record?
A: Its activity change, negative = inhibition is inconclusive: -62.3% [inhibitor].

Q: `CCOC(=O)c1ccc(NC(=O)CSc2nnc(-c3ccncc3)n2-c2ccccc2)cc1` was tested. Which Potency did it give?
A: The Potency was active: 2.24 µM.

Q: `Cc1cccn2c(=O)c3cc(C(=O)NCCc4ccccc4)sc3nc12` was tested. Which Potency did it give?
A: Its Potency is active: 14.1 µM.

Q: With `O=C(Nc1ccc(Cl)c(C(F)(F)F)c1)c1cc2nc(-c3ccc4c(c3)OCO4)cc(C(F)(F)F)n2n1` as the molecule, how does the “activity change, negative = inhibition” value read?
A: Its value is inactive: -10.7%.

Q: How did the Potency turn out when `O=C(Cn1nc(Cc2cccnc2)c2ccccc2c1=O)Nc1ccccc1F` was run?
A: The Potency was inconclusive: 8.91 µM [inhibitor, full curve, poor fit].

Q: Which “activity change, negative = inhibition” value does the source give for `CCCn1ccc2c(OCC(=O)Nc3ccc(C(F)(F)F)cc3)cccc2c1=O` here?
A: The value was inactive: 7.62%.

Q: For `Cc1cccc(C(=O)c2ccccc2C(=O)O)c1`, which Potency is on record?
A: Its Potency is inconclusive: 89.1 µM [inhibitor, single point].

Q: For `CC(C)Sc1nnc(NC(=O)c2ccc3c(c2)OCO3)s1`, which Potency is on record?
A: The Potency was inconclusive: 0.794 µM [inhibitor, full curve, poor fit].

Q: For `CC(=O)c1ccc(-n2c(SCC(=O)c3c[nH]c4ccccc34)nc3ccccc3c2=O)cc1`, which Potency is on record?
A: The Potency was inconclusive: 50.1 µM [inhibitor, single point].

Q: How did the Potency turn out when `CCCCCC(=O)Cc1cc(O)cc2c1C(=O)Oc1cc(O)c(C(=O)O)c(CCCCC)c1O2` was run?
A: Its Potency is active: 44.7 µM.

Q: With `COc1cccc(NC(=O)CN(C)CC(=O)Nc2ccc(Cl)cc2[N+](=O)[O-])c1` as the molecule, how does the Potency read?
A: Its Potency is inconclusive: 100 µM [inhibitor, single point].

Q: `CCCOC(=O)C1[C@H]2C(=O)N(CCCOC)C[C@]23C=C[C@H]1O3` (stereo not given in full) was tested. Which Potency did it give?
A: The Potency was inconclusive: 89.1 µM [inhibitor, single point].

Q: How did the Potency turn out when `Cc1cc(C)cc(NS(=O)(=O)c2ccc3[nH]cc(C(=O)NCc4ccco4)c(=O)c3c2)c1` was run?
A: Its Potency is inconclusive: 89.1 µM [inhibitor, single point].

Q: How did the Potency turn out when `COc1cccc(NC(=O)CCc2nnc3n(CC(C)C)c(=O)c4ccccc4n23)c1` was run?
A: Its Potency is inconclusive: 7.08 µM [inhibitor, full curve].

Q: For `CC(=O)c1ccc(NC(=O)CN2C(=O)CCc3cc(S(=O)(=O)N4CCC(C)CC4)ccc32)cc1`, which Potency is on record?
A: The Potency was active: 35.5 µM.

Q: For `Cc1ccc(OCC(=O)Nc2ccccc2C(=O)OCc2cc(=O)n3c(C)csc3n2)cc1`, which “activity change, negative = inhibition” value is on record?
A: Its value is inactive: 11.9%.

Q: `COc1ccc(OC)c(N(CC(=O)Nc2cccnc2)S(C)(=O)=O)c1` was tested. Which Potency did it give?
A: The Potency was inconclusive: 89.1 µM [inhibitor, single point].

Q: How did the Potency turn out when `O=C(Nc1cccnc1)c1ccc(-c2ccc(Cl)cc2)o1` was run?
A: The Potency was inconclusive: 79.4 µM [inhibitor, single point].

Q: `CCOC(=O)N1CCN(CC(=O)Nc2c(C(=O)OC)[nH]c3ccccc23)CC1` was tested. Which Potency did it give?
A: The Potency was inconclusive: 39.8 µM [inhibitor, single point].

Q: With `COc1ccc(-c2ccc(C(c3c(C)[nH][nH]c3=O)c3c(C)[nH][nH]c3=O)o2)c([N+](=O)[O-])c1` as the molecule, how does the Potency read?
A: Its Potency is inconclusive: 3.55 µM [inhibitor, partial curve, poor fit].

Q: For `Cc1ccc(NC(=O)c2ccc(CN3CC(=O)N4CCCCC4C3=O)cc2)cc1C` (stereo not given), which “activity change, negative = inhibition” value is on record?
A: Its value is inactive: 81.4%.

Q: For `CCOc1ccccc1NC(=O)Cc1cccs1`, which Potency is on record?
A: Its Potency is active: 10 µM.

Q: With `COc1ccc(/C=N/NC(=O)c2cc(O)c(O)c(O)c2)cc1Cn1cc([N+](=O)[O-])cn1` as the molecule, how does the Potency read?
A: The Potency was active: 0.562 µM.

Q: With `O=C(CN1CC[n+]2c(-c3ccccc3)csc21)c1ccc(Br)cc1` as the molecule, how does the “activity change, negative = inhibition” value read?
A: Its value is inactive: -22.6%.

Q: How did the Potency turn out when `COc1ccc(CNC(=O)Cn2nc(C)c3c(C)n(-c4ccc(C)cc4)nc3c2=O)cc1OC` was run?
A: The Potency was inconclusive: 11.2 µM [inhibitor, single point].

Q: With `COc1cc(OC)cc(C(=O)N(Cc2cc3cc(C)ccc3[nH]c2=O)C(C)C)c1` as the molecule, how does the Potency read?
A: Its Potency is inconclusive: 2.24 µM [inhibitor, full curve].

Q: With `COc1ccc(C2/C(=C(\O)c3ccc4c(c3)CC(C)O4)C(=O)C(=O)N2Cc2cccnc2)c(OC)c1` (stereo not given) as the molecule, how does the “activity change, negative = inhibition” value read?
A: Its value is inactive: 17.1%.

Q: Which Potency does the source give for `CCOC(=O)Cc1nnc(NC(=O)CSc2nnc3c(n2)[nH]c2ccccc23)s1` here?
A: Its Potency is active: 17.8 µM.

Q: Which Potency does the source give for `C=CCc1cc(OC)ccc1OCC(O)CN1CCN(c2ccc(OC)cc2)CC1` (stereo not given) here?
A: The Potency was inconclusive: 89.1 µM [inhibitor, single point].

Q: For `Cc1ccc(-n2c(SCc3cc(=O)n4ccsc4n3)nnc2-c2cccnc2)c(C)c1`, which Potency is on record?
A: Its Potency is active: 17.8 µM.

Q: How did the Potency turn out when `COc1cc(C=C2C(=O)OC(C)(C)OC2=O)cc(Cl)c1OCC(=O)Nc1ccccc1` was run?
A: The Potency was inconclusive: 17.8 µM [inhibitor, full curve, poor fit].

Q: With `Cc1ccc(CCC(=O)Nc2ccc(S(N)(=O)=O)cc2)o1` as the molecule, how does the “activity change, negative = inhibition” value read?
A: The value was inactive: -20.4%.

Q: Which Potency does the source give for `N#Cc1c(-c2cccs2)nc(SCc2ccc(Cl)cc2)[nH]c1=O` here?
A: Its Potency is active: 56.2 µM.

Q: With `Cc1nc(N2CCCC2)ncc1C(=O)NCc1ccccc1Cl` as the molecule, how does the “activity change, negative = inhibition” value read?
A: The value was inactive: -9.32%.

Q: For `COc1ccc2c(c1)CCc1c-2nc2ccccc2c1N1CCOCC1`, which activity change, negative = inhibition is on record?
A: Its activity change, negative = inhibition is inconclusive: -63.8% [inhibitor].

Q: Which “activity change, negative = inhibition” value does the source give for `COc1cccc(NC(=O)c2sc3nc(N4CCOCC4)c4c(c3c2N)CCCC4)c1` here?
A: The value was inactive: -2.62%.

Q: Which Potency does the source give for `CCNC(=O)Oc1ccc[nH]c1=O` here?
A: Its Potency is inconclusive: 89.1 µM [inhibitor, single point].

Q: How did the activity change, negative = inhibition turn out when `COc1ccc(CC(=O)Nc2sc3c(c2C(=O)Nc2ccc(C)cc2)CCCCC3)cc1` was run?
A: Its activity change, negative = inhibition is inconclusive: -96.5% [inhibitor].
